This is one part of the list.
target: T1, OsSMF1 (Oryza sativa, UniProt Q6ZLB0 1-436); test: protein-binding microarray (RPBM); PBS, 2% BSA, 51.3 ng/ul salmon testes DNA, 50 uM zinc acetate, 200 nM TF, 25 C, 1 h; high values mean tight binding; settings: protein: recombinant; tags: N-terminal polyhistidine and DsRed monomer fusion (pET32a); chain copies: 2; label: CyDye5-dUTP incorporated in the synthesized complementary strand; 3' TTTTT single-stranded linker to array surface; dsDNA, one strand shown
T1 sequence: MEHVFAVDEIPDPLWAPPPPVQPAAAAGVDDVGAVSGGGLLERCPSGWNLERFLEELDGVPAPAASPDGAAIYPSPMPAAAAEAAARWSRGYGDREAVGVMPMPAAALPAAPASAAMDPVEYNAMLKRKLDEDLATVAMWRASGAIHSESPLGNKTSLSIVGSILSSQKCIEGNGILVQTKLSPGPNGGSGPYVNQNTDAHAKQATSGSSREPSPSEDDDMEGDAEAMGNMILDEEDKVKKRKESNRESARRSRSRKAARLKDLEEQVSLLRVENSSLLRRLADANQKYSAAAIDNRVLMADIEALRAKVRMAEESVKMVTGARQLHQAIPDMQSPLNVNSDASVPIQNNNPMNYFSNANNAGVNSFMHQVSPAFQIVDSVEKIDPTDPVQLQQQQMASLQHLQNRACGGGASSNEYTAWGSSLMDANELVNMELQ
Procedure, shortened: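 An Axon 4000B scanner gave the binding signal as per-feature fluorescence intensity in arbitrary units. This followed washing of a custom Agilent array that had been incubated for 1 h at 25 °C with 200 nM protein in PBS, 2% BSA, salmon testes DNA and 50 µM zinc acetate. The proteins were transcription factors fused at the N-terminus to polyhistidine and DsRed, expressed in E. coli BL21-CodonPlus and purified on Ni–NTA.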

With “CGTGGTGAAGTGGTGGGGAGTTGCGGGAGGGAGGCATAGGCGGAGTCACCTAGTGCAG” as the sequence, how does the binding signal read?
Its binding signal is 3210 fluorescence intensity (a.u.).

For “GACATGGCACGTTGACTTGGTCCAGCTGTGCTGACGTGGCCGGAGTCACCTAGTGCAG”, which binding signal is on record?
The binding signal was 36000 fluorescence intensity (a.u.).

“CAACTCAACCACGTAGAAACGTGCGGGTTTACACGGTGGCCGGAGTCACCTAGTGCAG” was tested. Which binding signal did it give?
Its binding signal is 4280 fluorescence intensity (a.u.).

How did the binding signal turn out when “ATCGGACAAATTTTAGTAAGTGACGTTAACTTCTGCATTACGGAGTCACCTAGTGCAG” was run?
Its binding signal is 26000 fluorescence intensity (a.u.).

“CCATTGCATGGATGGTACATACAACAAAACACGCATGCATCGGAGTCACCTAGTGCAG” was tested. Which binding signal did it give?
Its binding signal is 3260 fluorescence intensity (a.u.).

“TACTTTATATAGATGTTCAAACATTCGATATGACATGCTGCGGAGTCACCTAGTGCAG” was tested. Which binding signal did it give?
The binding signal was 45300 fluorescence intensity (a.u.).

How did the binding signal turn out when “TTGTAAGATTTTGGCTCCCCAAATCTATCGTCAGCTATTTCGGAGTCACCTAGTGCAG” was run?
The binding signal was 3470 fluorescence intensity (a.u.).

With “AAAGTCCGCTCGTGTTATTGGTAATTGAACTACTAAGCTACGGAGTCACCTAGTGCAG” as the sequence, how does the binding signal read?
The binding signal was 41300 fluorescence intensity (a.u.).

“ATACCATGAGGTTGACGTCAACAATTTCGTAGCTGTGTAACGGAGTCACCTAGTGCAG” was tested. Which binding signal did it give?
Its binding signal is 5700 fluorescence intensity (a.u.).

For “GACGCGTACGCACGGTGGGACGCGGTGGTGGGGTGCTGGGCGGAGTCACCTAGTGCAG”, which binding signal is on record?
The binding signal was 3920 fluorescence intensity (a.u.).

“ACAACCCAAAGCGTGGCAGTGGCGAAGCCAGCTGGCACCACGGAGTCACCTAGTGCAG” was tested. Which binding signal did it give?
The binding signal was 3860 fluorescence intensity (a.u.).

Which binding signal does the source give for “TGCTCCGCTGCTGTTCGGGCCCCACGTAGTCGTGGTCCATCGGAGTCACCTAGTGCAG” here?
Its binding signal is 3960 fluorescence intensity (a.u.).

Which binding signal does the source give for “GTTTTATTGTTGAATTTTATATATTGTCACGTCCCCTTTTCGGAGTCACCTAGTGCAG” here?
Its binding signal is 4350 fluorescence intensity (a.u.).

How did the binding signal turn out when “AGAAATCAACGCGGAATTGAGCTCGATTCGAGCTTATCTGCGGAGTCACCTAGTGCAG” was run?
Its binding signal is 19800 fluorescence intensity (a.u.).

For “TGGTGCCTGGTTTCACCTTGTATGCATGCCACGTGAGATCCGGAGTCACCTAGTGCAG”, which binding signal is on record?
Its binding signal is 8150 fluorescence intensity (a.u.).

Which binding signal does the source give for “ACTACAAGAAATTTGGCCTTCTATGACAAAATTCATATGACGGAGTCACCTAGTGCAG” here?
The binding signal was 3540 fluorescence intensity (a.u.).

Which binding signal does the source give for “ATTTAAGGGTTATTAGATGGATCCATGTCACTACAAATATCGGAGTCACCTAGTGCAG” here?
Its binding signal is 7460 fluorescence intensity (a.u.).

With “GGGAGAGGAGGGGAGAGGAGGCTGACGTGGCCAGCTGATACGGAGTCACCTAGTGCAG” as the sequence, how does the binding signal read?
Its binding signal is 19200 fluorescence intensity (a.u.).

“CCTCGCTCTCCATGGTGGTGGTGGTGGTCAGGTGGTGGGGCGGAGTCACCTAGTGCAG” was tested. Which binding signal did it give?
Its binding signal is 4210 fluorescence intensity (a.u.).

Which binding signal does the source give for “CAAGCTCAAGATGATGACGATGACCATGTCCGACTGCTCTCGGAGTCACCTAGTGCAG” here?
Its binding signal is 5560 fluorescence intensity (a.u.).

For “AGACTTCGAATCCAAGTCGTTTAGCCAACCACCTTGTGGACGGAGTCACCTAGTGCAG”, which binding signal is on record?
Its binding signal is 6440 fluorescence intensity (a.u.).

“GTGCTATATCTTGCAGTGCATAGCCAGTACTGTCACTCAGCGGAGTCACCTAGTGCAG” was tested. Which binding signal did it give?
The binding signal was 4030 fluorescence intensity (a.u.).

“CTTCGAAACGCAGCGTGCGCGGCCACAACCCACGTCCGATCGGAGTCACCTAGTGCAG” was tested. Which binding signal did it give?
The binding signal was 3480 fluorescence intensity (a.u.).

With “TGTTGCCACGCTGGACCGCCACGTAAGCCCGTCAACCCGGCGGAGTCACCTAGTGCAG” as the sequence, how does the binding signal read?
The binding signal was 35500 fluorescence intensity (a.u.).

“AGGGCCCAACACCCGGTCCACGGTGGACCGCGTCCACAGACGGAGTCACCTAGTGCAG” was tested. Which binding signal did it give?
Its binding signal is 3830 fluorescence intensity (a.u.).

With “CAATGGGCGCGCGCCACATCACCTCTGCCTTCCCCTTTCCCGGAGTCACCTAGTGCAG” as the sequence, how does the binding signal read?
The binding signal was 14200 fluorescence intensity (a.u.).

“AGCTCGAGGCCGACGAGGAAGAGGAAGAACGTCGCCGCTGCGGAGTCACCTAGTGCAG” was tested. Which binding signal did it give?
The binding signal was 7610 fluorescence intensity (a.u.).

How did the binding signal turn out when “CCGCTCCCACGCCCTTCCTCTTGCCAGCTCCTCAAGCTCCCGGAGTCACCTAGTGCAG” was run?
Its binding signal is 4130 fluorescence intensity (a.u.).

How did the binding signal turn out when “GATGCATTTATCCTTATCCATCACACGCACACACGGCACACGGAGTCACCTAGTGCAG” was run?
The binding signal was 3310 fluorescence intensity (a.u.).

For “GGGATCTGTTTTCCTACTCACGTGTATTAACTAAACACTCCGGAGTCACCTAGTGCAG”, which binding signal is on record?
The binding signal was 4900 fluorescence intensity (a.u.).

With “AGTGTAGTGGCTGGTAGGAAGAAGGAGAAGTAAGGGAGAGCGGAGTCACCTAGTGCAG” as the sequence, how does the binding signal read?
Its binding signal is 31600 fluorescence intensity (a.u.).

“CGGCCCAGTTGCCAGGCTCACGGACGTGTCTGCAGGTAGGCGGAGTCACCTAGTGCAG” was tested. Which binding signal did it give?
Its binding signal is 4570 fluorescence intensity (a.u.).

With “CTTGTACAGCTGTTTGAAGTCAGCAAATTGGAGTTATTTCCGGAGTCACCTAGTGCAG” as the sequence, how does the binding signal read?
Its binding signal is 3540 fluorescence intensity (a.u.).

“GGGCGCTACGGTTCACCGGCCGTCACTCAACTCCCACTTGCGGAGTCACCTAGTGCAG” was tested. Which binding signal did it give?
Its binding signal is 3520 fluorescence intensity (a.u.).

“TAGGAAATTTTCCTATTTGGCCCTTTGATTCAAAGGATTGCGGAGTCACCTAGTGCAG” was tested. Which binding signal did it give?
Its binding signal is 3140 fluorescence intensity (a.u.).

For “ACAACAGCTTTATCGTTTGCTCTTCAGCTTATTAATTGTACGGAGTCACCTAGTGCAG”, which binding signal is on record?
The binding signal was 36600 fluorescence intensity (a.u.).

With “AAATGCTCGTAGAGATAAGGTGCACACGTATGTGTTTTACCGGAGTCACCTAGTGCAG” as the sequence, how does the binding signal read?
Its binding signal is 4120 fluorescence intensity (a.u.).

With “AAAGAGTGATTATGAGTCATTGTTACGAAGAATCTAGCATCGGAGTCACCTAGTGCAG” as the sequence, how does the binding signal read?
The binding signal was 3820 fluorescence intensity (a.u.).

With “GTCAAGGAGGAGTGCAAGGAAGGTCATGGCAACATCAACACGGAGTCACCTAGTGCAG” as the sequence, how does the binding signal read?
The binding signal was 3470 fluorescence intensity (a.u.).

With “ACAAGTTGACTCGTGACGACGGCGACTCCATCCGACCCACCGGAGTCACCTAGTGCAG” as the sequence, how does the binding signal read?
The binding signal was 3670 fluorescence intensity (a.u.).

With “AACCGAAACATAATTCCTCGCCCCATGCAGAACATGAAAACGGAGTCACCTAGTGCAG” as the sequence, how does the binding signal read?
The binding signal was 36300 fluorescence intensity (a.u.).

How did the binding signal turn out when “AGCAAGAACCGAGATTATCTGCATGTGACACGCCAACATTCGGAGTCACCTAGTGCAG” was run?
The binding signal was 4280 fluorescence intensity (a.u.).
